Data as given in PubChem BioAssay AID1053208 (Peter MacCallum Cancer Centre, 2014).
Screen: 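Find knock-downs that sensitise mouse osteosarcoma cells to doxorubicin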 (primary screen). System: mouse osteosarcoma cells, early-passage culture from an engineered mouse model of fibroblastic bone tumour. Reagent: siRNA pool against mouse genes, 40 nM. Time to read-out: about 120 h (48 h before drug, then 72 h with drug). Treatment: doxorubicin 100 nM for 72 h, roughly 30-40% inhibitory dose. Read-out: 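Viability read as ATP luminescence after 72 h of 100 nM doxorubicin or none, duplicate wells averaged, scaled to non-targeting siRNA, then expressed as robust z-scores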. Direction: viability z-score with doxorubicin and doxorubicin viability vs non-targeting: higher = more viable cells under doxorubicin; viability z-score without drug: higher = more viable cells with knock-down alone; z-score of drug to no-drug ratio: higher = less drug sensitisation by knock-down. Hit rule: 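a pool counts as active when its viability z-score with doxorubicin is -2 or below and its z-score without drug lies between -2 and 2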.
In all, the deposit lists about 17,000 reagents; this is an unselected part. 788 of them (4.7%) were called active. 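Calls rest on z-score classes alone; an extra cut-off of viability at most 70% of control was not applied to them.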 Unmarked entries are inactive. Reagent sequences are not shown.

Gene	combined z-score class	viability z-score with doxorubicin	viability z-score without drug	z-score of drug to no-drug ratio	doxorubicin viability vs non-targeting
Tgfbr1	low cell count without drug only	-1.12	-2.02	0.34	0.84
Kdm1b	no change with or without drug	0.34	-0.17	0.56	0.97
Fpr-rs4	no change with or without drug	0.67	0.34	0.56	1
Hspa1a	no change with or without drug	-0.22	0.51	-0.45	0.92
Fli1	low cell count with doxorubicin only (active)	-2.25	1.52	-3.04	0.74
Pcbd1	no change with or without drug	0.9	0.51	0.67	1.02
Mdfi	no change with or without drug	1.12	1.01	0.56	1.04
Zwilch	no change with or without drug	-1.01	0.34	-1.12	0.85
Cacng8	no change with or without drug	-0.34	0.84	-0.79	0.91
Cpxm1	no change with or without drug	1.12	0.84	0.67	1.04
Kctd7	low cell count with doxorubicin only (active)	-2.02	-0.84	-1.57	0.76
Nup37	no change with or without drug	0.56	-1.01	1.46	0.99
Phpt1	no change with or without drug	0.22	0.34	0.11	0.96
Vill	no change with or without drug	0.22	1.52	-0.67	0.96
Arl9	no change with or without drug	-0.45	1.18	-1.12	0.9
Cd300c	no change with or without drug	-0.67	0.84	-1.12	0.88
Pcdha10	no change with or without drug	-1.57	-0.84	-1.01	0.8
Or52x1	no change with or without drug	-0.11	0.34	-0.22	0.93
Iqgap1	no change with or without drug	-0.45	1.01	-1.01	0.9

Copied from the list:
Cacng8, doxorubicin viability vs non-targeting → 0.91
Result of Or52x1 under “combined z-score class”: no change with or without drug
Value of Hspa1a under “doxorubicin viability vs non-targeting”: 0.92
Zwilch, doxorubicin viability vs non-targeting → 0.85
Cd300c, z-score of drug to no-drug ratio = -1.12
Under “combined z-score class”, Arl9 is entered as no change with or without drug

Further results:
Gene	combined z-score class	viability z-score with doxorubicin	viability z-score without drug	z-score of drug to no-drug ratio	doxorubicin viability vs non-targeting
9330154K18Rik	no change with or without drug	-0.45	-0.51	0	0.9
Whr1	no change with or without drug	1.46	0.67	1.12	1.07
Ifne	no change with or without drug	-1.35	0.34	-1.46	0.82
Krt25	no change with or without drug	1.24	-1.01	2.25	1.05
Herc1	no change with or without drug	-0.11	0.84	-0.56	0.93
1700030K09Rik	no change with or without drug	0	0.51	-0.22	0.94
Apbb3	no change with or without drug	-1.12	-0.51	-0.79	0.84
Parvg	no change with or without drug	-0.9	-1.18	0	0.86
Aqr	low cell count with and without drug	-4.95	-2.7	-3.93	0.5
Pmf1	no change with or without drug	-0.22	0.17	-0.22	0.92
Clec4e	no change with or without drug	-1.57	0	-1.57	0.8
Cilk1	no change with or without drug	1.8	1.18	1.12	1.1
Rras	no change with or without drug	-0.9	0.51	-1.12	0.86
Ifna4	no change with or without drug	0.22	-0.67	0.79	0.96
Slc17a4	no change with or without drug	0.11	-1.69	1.57	0.95
Tnni1	no change with or without drug	0	-0.17	0.22	0.94
Crispld2	no change with or without drug	-0.67	-0.17	-0.45	0.88
Inpp5d	no change with or without drug	0.45	0.84	0	0.98
Adamts5	no change with or without drug	0.34	-0.17	0.56	0.97
Tnfrsf23	no change with or without drug	-1.12	-0.17	-1.01	0.84
Gm6740	no change with or without drug	-1.24	-0.51	-0.9	0.83
Or2ak7	no change with or without drug	-1.12	-1.69	0.11	0.84
Or1e19	no change with or without drug	1.01	-0.51	1.57	1.03
Foxa3	no change with or without drug	-0.34	0.51	-0.56	0.91
Nsd1	no change with or without drug	0.9	0.67	0.56	1.02
Pus3	no change with or without drug	-1.8	0.17	-1.91	0.78
Rfx3	no change with or without drug	-0.45	0.34	-0.56	0.9
Napepld	no change with or without drug	0.22	-0.67	0.79	0.96
Lcn5	no change with or without drug	0.11	0.51	-0.11	0.95
Kank3	no change with or without drug	0.34	0.34	0.22	0.97
Nkx3-1	no change with or without drug	1.57	-0.51	2.14	1.08
